{"source": "patent US12350344", "about": "(dated 2025)", "assay": "general procedure: solution-phase peptide synthesis; N-ethoxycarbonyl-2-ethoxy-1,2-dihydroquinoline", "details": "coupling step"}
{"substance": "N-[4-(11,12-Didehydrodibenzo[b,f]azocin-5 (6H)-yl)-4-oxobutanoyl]glycylglycyl-L-valyl-N-{6-[({[(11a′S)-11′-hydroxy-7′-methoxy-8′-(3-{[(11aS)-7-methoxy-2-(4-methoxyphenyl)-5-oxo-5,10,11,11a-tetrahydro-1H-pyrrolo[2,1-c][1,4]benzodiazepin-8-yl]oxy}propoxy)-5′-oxo-11′,11a′-dihydro-1′H-spiro[cyclopropane-1,2′-pyrrolo[2,1-c][1,4]benzodiazepine]-10′(5′H)-yl]carbonyl}oxy)methyl]pyridine-3-yl}-L-alaninamide", "values": [{"measurement": "step yield", "value": 48, "unit": "%"}]}
{"substance": "N-[4-(11,12-Didehydrodibenzo[b,f]azocin-5 (6H)-yl)-4-oxobutanoyl]glycylglycyl-L-valyl-N^5-carbamoyl-N-{4-[({[(11a′S)-11′-hydroxy-7′-methoxy-8′-(3-{[(11aS)-7-methoxy-2-(4-methoxyphenyl)-5-oxo-5,10,11,11a-tetrahydro-1H-pyrrolo[2,1-c][1,4]benzodiazepin-8-yl]oxy}propoxy)-5′-oxo-11′,11a′-dihydro-1′H-spiro[cyclopropane-1,2′-pyrrolo[2,1-c][1,4]benzodiazepine]-10′(5′H)-yl]carbonyl}oxy)methyl]phenyl}-L-ornithinamide", "values": [{"measurement": "step yield", "value": 14, "unit": "%"}]}
{"substance": "N-[4-(11,12-Didehydrodibenzo[b,f]azocin-5 (6H)-yl)-4-oxobutanoyl]glycylglycyl-L-valyll-N-{4-[({[(11a′S)-11′-hydroxy-7′-methoxy-8′-(3-{[(11aS)-7-methoxy-5-oxo-2-phenyl-5,10,11,11a-tetrahydro-1H-pyrrolo[2,1-c][1,4]benzodiazepin-8-yl]oxy}propoxy)-5′-oxo-11′,11a′-dihydro-1′H-spiro[cyclopropane-1,2′-pyrrolo[2,1-c][1,4]benzodiazepine]-10′(5′H)-yl]carbonyl}oxo)methyl]phenyl}-L-alaninamide", "values": [{"measurement": "step yield", "value": 36, "unit": "%"}]}
{"substance": "N-[4-(11,12-Didehydrodibenzo[b,f]azocin-5(6H)-yl)-4-oxobutanoyl]glycylglycyl-L-valyl-N-[4-({[(11′aS)-11′-hydroxy-7′-methoxy-8′-(3-{[(11aS)-7-methoxy-2-(4-methoxyphenyl)-5-oxo-5,10,11,11a-tetrahydro-1H-pyrrolo[2,1-c][1,4]benzodiazepin-8-yl]oxy}propoxy)-5′-oxo-11′,11′a-dihydro-1′H,3′H-spiro[cyclopropane-1,2′-pyrrolo[2,1-c][1,4]benzodiazepine]-10′(5′H)-carbonyl]oxy}methyl)phenyl]-L-alaninamide", "values": [{"measurement": "step yield", "value": 64, "unit": "%"}]}
{"substance": "N-[(11,12-Didehydro-5,6-dihydrodibenzo[a,e][8]annulen-5-yloxy)carbonyl]glycylglycyl-L-valyl-N-{4-[({[(11a′S)-11′-hydroxy-7′-methoxy-8′-(3-{[(11aS)-7-methoxy-2-(4-methoxyphenyl)-5-oxo-5,10,11,11a-tetrahydro-1H-pyrrolo[2,1-c][1,4]benzodiazepin-8-yl]oxy}propoxy)-5′-oxo-11′,11a′-dihydro-1′H-spiro[cyclopropane-1,2′-pyrrolo[2,1-c][1,4]benzodiazepine]-10′(5′H)-yl]carbonyl}oxy)methyl]phenyl}-L-alaninamide", "values": [{"measurement": "step yield", "value": 87, "unit": "%"}]}
{"substance": "N-{[(1R,8S)-Bicyclo[6.1.0]non-4-in-9-ylmethoxy]carbonyl}glycylglycyl-L-valyl-N-{4-[({[(11a′S)-11′-hydroxy-7′-methoxy-8′-[(5-{[(11aS)-7-methoxy-2-(4-methoxyphenyl)-5-oxo-5,10,11,11a-tetrahydro-1H-pyrrolo[2,1-c][1,4]benzodiazepin-8-yl]oxy}pentyl)oxy]-5′-oxo-11′,11a′-dihydro-1′H-spiro[cyclopropane-1,2′-pyrrolo[2,1-c][1,4]benzodiazepine]-10′(5′H)-yl]carbonyl}oxy)methyl]phenyl}-L-alaninamide", "values": [{"measurement": "step yield", "value": 60, "unit": "%"}]}
